No constants are given. Whether binding was seen depends on the method and setting. Some results given as binding are weak or reduced against the parent protein; the word gives no strength. Sequences can lack the tags named with a protein.

This passage reports binding results from patent US8420371.

This test has as its target human GAD65, residues 84-585, with a C-terminal hexahistidine tag (GAD65Δ1-83) (human) (UniProt Q05329). In words: crystal structure, 2.3 Å.

B1: human GAD65, residues 84-585, with a C-terminal hexahistidine tag (GAD65Δ1-83) (enzyme)
chain: KVDVNYAFLHATDLLPACDGERPTLAFLQDVMNILLQYVVKSFDRSTKVIDFHYPNELLQEYNWELADQPQNLEEILMHCQTTLKYAIKTGHPRYFNQLSTGLDMVGLAADWLTSTANTNMFTYEIAPVFVLLEYVTLKKMREIIGWPGGSGDGIFSPGGAISNMYAMMIARFKMFPEVKEKGMAALPFLIAFTSEHSHFSLKKGAAALGIGTDSVILIKCDERGKMIPSDLERRILEAKQKGPVPFLVSATAGTTVYGAFDPLLAVADICKKYKIWMHVDAAWGGGLLMSRKHKWKLSGVERANSVTWNPHKMMGVPLQCSALLVREEGLMQNCNQMHASYLFQQDKHYDLSYDTGDKALQCGRHVDVFKLWLMWRAKGTTGFEAHVDKCLELAEYLYNIIKNREGYEMVFDGKPQHTNVCFWYIPPSLRTLEDNEERMSRLSKVAPVIKARMMEYGTTMVSYQPLGDKVNFFRMVISNPAATHQDIDFLIEEIERLGQDLHHHHHH
modifications: PLP bound to the active site lysine by a Schiff base linkage
For the molecule B1, the binding entry is on record as “binds”.
